Data from article PMC10923831.
These are yes or no findings as the source states them, for the method shown. For some of these results: In cells and extracts the contact can be indirect. Some binding calls cover weakened binding; strength is not graded here.

Protein sequences, listed by entry. Tags and fused reporters are not part of them.
UniProt P12004: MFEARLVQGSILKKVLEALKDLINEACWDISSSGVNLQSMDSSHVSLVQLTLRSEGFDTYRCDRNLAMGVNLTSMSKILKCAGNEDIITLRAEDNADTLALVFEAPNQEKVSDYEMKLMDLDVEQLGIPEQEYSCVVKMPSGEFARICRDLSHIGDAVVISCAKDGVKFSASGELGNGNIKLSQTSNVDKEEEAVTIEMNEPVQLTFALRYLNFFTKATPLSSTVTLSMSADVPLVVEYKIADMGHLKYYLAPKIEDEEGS
UniProt P62993: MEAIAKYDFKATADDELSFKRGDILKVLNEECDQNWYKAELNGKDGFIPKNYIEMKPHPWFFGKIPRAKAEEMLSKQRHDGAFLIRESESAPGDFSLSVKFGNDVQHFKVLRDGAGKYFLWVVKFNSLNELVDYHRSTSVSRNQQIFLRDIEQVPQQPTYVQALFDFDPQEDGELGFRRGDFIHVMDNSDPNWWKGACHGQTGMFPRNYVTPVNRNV

Experiments:
[1] = target: GFP-tagged PCNA (UniProt P12004); experiment: FRET or BRET; FLIM/FRET in cells co-expressing RFP-tagged GRB2 and GFP-tagged PCNA; reduction of the average lifetime of the GFP-tagged PCNA
[2] = target: Tyrosine phosphorylated PCNA (pPCNA) (UniProt P12004); experiment: MST; Monolith NT.115; 100 nM protein labelled with Atto 488, peptide or protein serially diluted typically from about 100 uM to 30 nM; 0.01 M HEPES pH 7.4, 0.15 M NaCl, 0.005% Surfactant P20; 22 °C; both purified
[3] = target: Proliferating cell nuclear antigen (PCNA), purified (UniProt P12004); experiment: as above

| Molecule | binding [1] | binding [2] | binding [3] |
| --- | --- | --- | --- |
| RFP-tagged GRB2 (from UniProt P62993 1-217) | binds |  |  |
| Growth factor receptor-bound protein 2 (GRB2), wild type (from UniProt P62993 1-217) |  | binds | binds |
| GASHGQTGMFPRNYVT [Synthetic GRB2 PIP motif peptide] |  |  | binds |
